Measured data: PubChem BioAssay AID504764 (Drosophila RNAi Screening Center, 2011)
Screen: 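Genes whose knock-down alters Notch-dependent transcription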 (primary screen). Cell system: Drosophila Kc167 cells. Reagents: long dsRNA against Drosophila genes. Timing: about 5 days (4 days dsRNA, then 24 h after transfection). Treatment: transfection of constitutively active membrane-tethered Notch lacking the extracellular domain, read 24 h later. Detection: 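Light from a Notch-responsive E(spl)m3 luciferase reporter under active Notch, with control-promoter and no-Notch reporter wells to normalise; raw counts from paired wells a and b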. Reading the numbers: induced reporter light, run 1, well a and induced reporter light, run 1, well b: higher = more light from the Notch target reporter with active Notch; control promoter light, run 1, well a and control promoter light, run 1, well b: higher = more light from the viral control promoter (cell number, transfection, viability); uninduced reporter light, run 1, well a: higher = more light from the Notch target reporter without active Notch. Hit rule: 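Wells with low control signal or poorly matching duplicates excluded; duplicates averaged; per source plate, z beyond ±2 for induced/control log2 ratio or beyond ±1.8 for induced/uninduced marks a hit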. Meaning of the calls: active = modifier hit (raised or lowered Notch signal); inactive = not a hit.
In all, the deposit lists about 22,000 reagents; shown is a random part of those with a known target gene and a result. Of all reagents, 403 (1.9%) were called active. 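Unnormalised raw counts per well; ratio z-scores behind the hit calls and whether each hit raises or lowers signal are not deposited.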 Names joined by + are all predicted targets of the reagent. No sequences are given here. Not given: the amount of reagent.

no.	gene knocked down	dsRNA	induced reporter light, run 1, well a	induced reporter light, run 1, well b	control promoter light, run 1, well a	control promoter light, run 1, well b	uninduced reporter light, run 1, well a	Outcome
1	ND-B18 (NADH dehydrogenase (ubiquinone) B18 subunit)	DRSC19947	1.02e5	93890	1.29e5	1.06e5	12995	inactive
2	CG14621	DRSC20635	79050	90190	93340	96705	10675	inactive
3	Pgant4 (Polypeptide N-Acetylgalactosaminyltransferase 4)	DRSC00717	1.28e5	1.27e5	1.45e5	1.21e5	8355	inactive
4	CG9555	DRSC03264	1.25e5	1.40e5	82115	96270	15635	inactive
5	bark (bark beetle)	DRSC00635	1.01e5	84500	95560	1.00e5	5780	inactive
6	Indy-2 + CG33934	DRSC15685	63905	54070	52935	58265	5770	inactive
7	Indy-2 + CG33934	DRSC15686	1.98e5	1.69e5	1.91e5	1.91e5	16875	inactive
8	CG3704	DRSC18174	88980	87380	1.22e5	1.13e5	6085	inactive
9	CG3704	DRSC18645	85750	96355	1.27e5	1.01e5	6465	inactive
10	Drep4 (DNA fragmentation factor-related protein 4)	DRSC03408	1.44e5	1.56e5	1.94e5	1.98e5	13765	inactive
11	Sox100B	DRSC15090	82545	69870	1.14e5	1.14e5	7085	inactive
12	Sox100B	DRSC16866	4135	3865	8635	8795	470	inactive
13	ZnT35C (Zinc transporter 35C)	DRSC01959	1.34e5	1.55e5	1.46e5	1.70e5	11235	inactive
14	Rab9Db + Rab9D + Rab9E	DRSC17656	66215	75730	85575	83355	5420	inactive
15	CheB38a (Chemosensory protein B 38a)	DRSC03205	38730	24465	38940	27620	1705	inactive
16	CG31404	DRSC15497	2.21e5	1.88e5	2.18e5	2.11e5	10792	active
17	EndoGI (Endonuclease G inhibitor)	DRSC01964	1.38e5	1.32e5	1.51e5	1.68e5	10032	inactive
18	ssp2 (short spindle 2)	DRSC11052	1.07e5	1.06e5	70415	79780	13115	inactive

Records above whose target name starts with S or s:
gene knocked down	dsRNA	induced reporter light, run 1, well a	induced reporter light, run 1, well b	control promoter light, run 1, well a	control promoter light, run 1, well b	uninduced reporter light, run 1, well a	Outcome
Sox100B	DRSC15090	82545	69870	1.14e5	1.14e5	7085	inactive
Sox100B	DRSC16866	4135	3865	8635	8795	470	inactive
ssp2 (short spindle 2)	DRSC11052	1.07e5	1.06e5	70415	79780	13115	inactive

Additional records follow:
no.	gene knocked down	dsRNA	induced reporter light, run 1, well a	induced reporter light, run 1, well b	control promoter light, run 1, well a	control promoter light, run 1, well b	uninduced reporter light, run 1, well a	Outcome
19	CG14763	DRSC06497	2.22e5	1.93e5	2.76e5	2.29e5	19490	inactive
20	dind (diamond)	DRSC16294	1.36e5	2.17e5	2.01e5	2.56e5	13900	inactive
21	Jhbp4 (Juvenile hormone binding protein 4)	DRSC14222	2.39e5	2.14e5	2.35e5	2.18e5	18485	inactive
22	CG7706	DRSC16295	2.61e5	3.46e5	3.05e5	4.17e5	21420	inactive
23	CG32655	DRSC18925	61150	46555	65415	63570	4375	inactive
24	CG9166	DRSC07842	1.11e5	76765	1.31e5	1.08e5	5900	inactive
25	CG32459	DRSC11852	1.21e5	1.04e5	1.07e5	80330	7050	inactive
26	kibra	DRSC14533	2.64e5	2.80e5	2.61e5	2.93e5	21905	inactive
27	kibra	DRSC16257	17228	18250	14660	13770	5130	inactive
28	Fdh (Formaldehyde dehydrogenase)	DRSC16670	1.02e5	1.04e5	66790	68650	8060	inactive
29	ms(3)76Cc (male sterile (3) 76Cc)	DRSC11071	1.74e5	1.40e5	1.22e5	1.14e5	10285	inactive
30	sens-2 (senseless-2)	DRSC02136	2.23e5	1.31e5	1.47e5	1.81e5	12325	inactive
31	sens-2 (senseless-2)	DRSC02613	1.42e5	1.41e5	1.22e5	1.14e5	9725	inactive
32	sens-2 (senseless-2)	DRSC21374						inactive
33	CR11386 + CR33222	DRSC17781	1.16e5	1.49e5	2.53e5	2.28e5	9275	inactive
34	mRpL36 (mitochondrial ribosomal protein L36)	DRSC10337	2.46e5	2.49e5	2.48e5	2.37e5	17085	inactive
